From doi:10.1101/2025.08.07.669166
Read-outs that look alike come from different tables or passages of the source. These are yes or no findings as the source states them, for the method shown. In cells and extracts the contact can be indirect. Here binding means that the protein was enriched with, or labelled near, the bait; the list need not be complete. One block for each substance: values may come before it.

Protein sequences, listed by entry. Tags and fused reporters are not part of them.
UniProt P04150: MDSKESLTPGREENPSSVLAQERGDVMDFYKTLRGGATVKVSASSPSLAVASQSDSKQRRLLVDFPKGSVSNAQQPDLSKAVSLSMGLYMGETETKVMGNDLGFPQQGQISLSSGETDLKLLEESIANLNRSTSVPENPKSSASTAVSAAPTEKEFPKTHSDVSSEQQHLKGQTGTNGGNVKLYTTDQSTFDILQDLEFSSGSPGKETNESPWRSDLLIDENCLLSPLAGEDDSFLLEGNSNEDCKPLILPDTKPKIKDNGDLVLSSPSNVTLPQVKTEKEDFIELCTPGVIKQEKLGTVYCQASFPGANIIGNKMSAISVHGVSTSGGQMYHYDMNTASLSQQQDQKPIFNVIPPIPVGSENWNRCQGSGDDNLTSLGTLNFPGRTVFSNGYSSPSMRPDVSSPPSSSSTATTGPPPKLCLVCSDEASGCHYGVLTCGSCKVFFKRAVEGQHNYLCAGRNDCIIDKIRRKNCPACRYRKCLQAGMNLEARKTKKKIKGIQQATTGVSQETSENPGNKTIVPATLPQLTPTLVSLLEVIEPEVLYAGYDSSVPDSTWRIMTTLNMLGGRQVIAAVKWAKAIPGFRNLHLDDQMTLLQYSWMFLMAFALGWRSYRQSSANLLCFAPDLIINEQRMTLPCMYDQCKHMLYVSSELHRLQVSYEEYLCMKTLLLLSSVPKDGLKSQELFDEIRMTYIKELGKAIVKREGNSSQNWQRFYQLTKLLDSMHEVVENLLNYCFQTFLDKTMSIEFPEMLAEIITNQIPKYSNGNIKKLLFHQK
UniProt Q4ZG55: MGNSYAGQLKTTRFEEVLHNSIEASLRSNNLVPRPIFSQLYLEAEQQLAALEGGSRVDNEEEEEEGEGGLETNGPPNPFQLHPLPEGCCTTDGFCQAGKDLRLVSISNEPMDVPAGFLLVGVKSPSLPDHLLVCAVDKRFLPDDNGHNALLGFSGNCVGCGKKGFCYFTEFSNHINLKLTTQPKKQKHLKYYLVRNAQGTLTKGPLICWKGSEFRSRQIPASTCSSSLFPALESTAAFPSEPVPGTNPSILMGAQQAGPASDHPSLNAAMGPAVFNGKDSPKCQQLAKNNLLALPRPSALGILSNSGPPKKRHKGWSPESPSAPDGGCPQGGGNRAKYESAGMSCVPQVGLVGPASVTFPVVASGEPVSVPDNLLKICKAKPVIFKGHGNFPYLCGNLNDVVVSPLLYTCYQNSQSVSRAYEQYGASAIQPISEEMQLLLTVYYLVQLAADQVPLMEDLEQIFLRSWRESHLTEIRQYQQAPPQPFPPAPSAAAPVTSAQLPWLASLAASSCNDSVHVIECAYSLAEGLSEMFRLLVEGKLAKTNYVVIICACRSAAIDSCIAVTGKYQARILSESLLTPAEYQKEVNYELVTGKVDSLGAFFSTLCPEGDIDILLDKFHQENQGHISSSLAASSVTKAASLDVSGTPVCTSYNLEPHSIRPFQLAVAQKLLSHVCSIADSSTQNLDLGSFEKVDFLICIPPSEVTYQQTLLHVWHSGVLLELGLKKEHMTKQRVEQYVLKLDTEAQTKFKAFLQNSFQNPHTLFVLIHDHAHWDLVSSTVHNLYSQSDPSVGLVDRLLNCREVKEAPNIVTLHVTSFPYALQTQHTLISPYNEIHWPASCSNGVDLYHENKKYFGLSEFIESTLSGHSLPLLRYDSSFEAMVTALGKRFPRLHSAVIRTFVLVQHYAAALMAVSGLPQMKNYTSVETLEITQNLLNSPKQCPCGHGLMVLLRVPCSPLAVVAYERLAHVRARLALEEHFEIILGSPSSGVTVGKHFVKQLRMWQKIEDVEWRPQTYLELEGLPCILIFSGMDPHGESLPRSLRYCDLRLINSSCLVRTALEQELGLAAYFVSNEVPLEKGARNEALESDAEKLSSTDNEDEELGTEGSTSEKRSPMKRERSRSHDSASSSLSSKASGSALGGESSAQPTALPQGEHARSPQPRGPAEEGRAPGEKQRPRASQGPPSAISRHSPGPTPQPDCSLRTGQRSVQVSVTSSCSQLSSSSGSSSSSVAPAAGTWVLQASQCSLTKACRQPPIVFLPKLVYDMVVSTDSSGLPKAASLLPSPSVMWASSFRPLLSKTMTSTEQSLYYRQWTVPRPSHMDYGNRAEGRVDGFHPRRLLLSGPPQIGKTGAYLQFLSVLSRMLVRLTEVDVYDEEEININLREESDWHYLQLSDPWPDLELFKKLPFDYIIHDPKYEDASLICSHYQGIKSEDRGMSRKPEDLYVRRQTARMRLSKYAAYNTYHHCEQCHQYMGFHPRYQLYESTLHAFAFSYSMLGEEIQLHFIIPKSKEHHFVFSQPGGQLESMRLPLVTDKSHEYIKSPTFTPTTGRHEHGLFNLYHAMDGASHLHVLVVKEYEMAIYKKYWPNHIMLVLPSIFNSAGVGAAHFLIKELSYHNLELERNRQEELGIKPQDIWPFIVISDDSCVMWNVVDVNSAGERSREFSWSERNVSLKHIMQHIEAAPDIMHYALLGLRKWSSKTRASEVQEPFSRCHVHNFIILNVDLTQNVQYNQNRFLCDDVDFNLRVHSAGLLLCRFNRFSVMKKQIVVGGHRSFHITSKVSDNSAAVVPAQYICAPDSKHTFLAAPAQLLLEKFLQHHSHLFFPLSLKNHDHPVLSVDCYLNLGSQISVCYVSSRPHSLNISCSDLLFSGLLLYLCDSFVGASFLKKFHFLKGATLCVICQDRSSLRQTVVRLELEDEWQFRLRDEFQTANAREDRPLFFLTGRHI
UniProt Q9UKT9: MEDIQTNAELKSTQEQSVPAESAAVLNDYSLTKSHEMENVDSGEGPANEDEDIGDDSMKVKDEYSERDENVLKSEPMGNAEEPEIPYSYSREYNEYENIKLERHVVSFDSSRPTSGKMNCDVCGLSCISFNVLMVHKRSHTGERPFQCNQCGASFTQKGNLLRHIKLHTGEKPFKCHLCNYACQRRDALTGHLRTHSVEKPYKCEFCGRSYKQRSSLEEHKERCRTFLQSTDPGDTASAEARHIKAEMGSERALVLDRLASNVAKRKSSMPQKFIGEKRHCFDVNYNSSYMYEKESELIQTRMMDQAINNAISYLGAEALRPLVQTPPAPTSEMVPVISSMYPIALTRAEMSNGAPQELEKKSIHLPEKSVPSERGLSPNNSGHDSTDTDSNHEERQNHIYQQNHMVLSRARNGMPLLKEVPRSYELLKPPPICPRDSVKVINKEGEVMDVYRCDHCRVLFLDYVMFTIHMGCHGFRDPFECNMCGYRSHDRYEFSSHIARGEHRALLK
UniProt Q92922: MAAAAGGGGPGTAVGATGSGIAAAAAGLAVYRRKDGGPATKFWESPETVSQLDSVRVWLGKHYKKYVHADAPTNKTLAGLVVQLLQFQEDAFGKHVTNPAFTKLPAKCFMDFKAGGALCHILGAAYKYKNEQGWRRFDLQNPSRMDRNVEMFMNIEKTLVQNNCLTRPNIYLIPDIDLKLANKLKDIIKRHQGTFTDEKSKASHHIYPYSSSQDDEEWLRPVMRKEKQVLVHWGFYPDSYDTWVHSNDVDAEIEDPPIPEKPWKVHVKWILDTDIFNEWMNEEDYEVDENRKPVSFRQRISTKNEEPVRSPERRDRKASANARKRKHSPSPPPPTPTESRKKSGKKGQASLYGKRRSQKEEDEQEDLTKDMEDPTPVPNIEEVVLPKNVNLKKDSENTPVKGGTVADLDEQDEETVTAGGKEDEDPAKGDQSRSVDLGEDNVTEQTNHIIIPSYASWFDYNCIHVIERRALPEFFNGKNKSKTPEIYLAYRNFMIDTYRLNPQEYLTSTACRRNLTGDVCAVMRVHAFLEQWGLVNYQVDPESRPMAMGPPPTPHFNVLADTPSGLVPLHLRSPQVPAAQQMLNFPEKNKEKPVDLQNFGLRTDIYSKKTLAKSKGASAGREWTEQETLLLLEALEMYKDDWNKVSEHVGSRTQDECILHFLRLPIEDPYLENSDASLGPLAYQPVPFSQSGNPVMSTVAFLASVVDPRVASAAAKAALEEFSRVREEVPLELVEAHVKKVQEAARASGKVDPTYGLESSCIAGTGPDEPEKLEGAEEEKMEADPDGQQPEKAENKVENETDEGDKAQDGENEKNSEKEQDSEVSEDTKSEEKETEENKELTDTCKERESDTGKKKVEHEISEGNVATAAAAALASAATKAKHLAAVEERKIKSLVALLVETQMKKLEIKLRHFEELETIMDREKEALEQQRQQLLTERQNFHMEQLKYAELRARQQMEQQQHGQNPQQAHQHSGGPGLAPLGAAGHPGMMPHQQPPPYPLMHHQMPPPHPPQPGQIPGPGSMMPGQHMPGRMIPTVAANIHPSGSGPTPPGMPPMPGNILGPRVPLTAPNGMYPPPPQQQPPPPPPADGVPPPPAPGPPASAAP
UniProt Q9GZV5: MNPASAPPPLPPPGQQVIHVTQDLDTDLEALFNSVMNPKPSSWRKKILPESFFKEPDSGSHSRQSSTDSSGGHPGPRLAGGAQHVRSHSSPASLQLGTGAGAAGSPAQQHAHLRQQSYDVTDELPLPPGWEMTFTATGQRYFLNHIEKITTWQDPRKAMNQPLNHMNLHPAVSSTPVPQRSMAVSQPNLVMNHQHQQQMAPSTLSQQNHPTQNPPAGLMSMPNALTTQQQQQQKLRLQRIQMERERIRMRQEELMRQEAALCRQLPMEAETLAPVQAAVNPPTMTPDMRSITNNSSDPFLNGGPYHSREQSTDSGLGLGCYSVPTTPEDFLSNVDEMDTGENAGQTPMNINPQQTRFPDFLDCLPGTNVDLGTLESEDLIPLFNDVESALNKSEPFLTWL
UniProt P23771: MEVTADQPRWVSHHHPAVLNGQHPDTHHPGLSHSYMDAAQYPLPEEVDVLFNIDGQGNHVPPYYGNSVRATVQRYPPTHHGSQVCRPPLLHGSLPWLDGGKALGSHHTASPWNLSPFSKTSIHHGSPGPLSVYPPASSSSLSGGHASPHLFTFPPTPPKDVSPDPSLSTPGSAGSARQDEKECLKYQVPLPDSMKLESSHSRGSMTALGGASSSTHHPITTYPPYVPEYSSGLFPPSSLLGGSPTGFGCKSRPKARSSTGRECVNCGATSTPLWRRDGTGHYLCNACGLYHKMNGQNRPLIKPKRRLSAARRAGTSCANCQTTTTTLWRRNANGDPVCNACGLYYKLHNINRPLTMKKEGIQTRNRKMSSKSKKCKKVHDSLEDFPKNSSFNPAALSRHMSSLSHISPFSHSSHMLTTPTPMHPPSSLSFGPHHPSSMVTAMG
UniProt Q6STE5: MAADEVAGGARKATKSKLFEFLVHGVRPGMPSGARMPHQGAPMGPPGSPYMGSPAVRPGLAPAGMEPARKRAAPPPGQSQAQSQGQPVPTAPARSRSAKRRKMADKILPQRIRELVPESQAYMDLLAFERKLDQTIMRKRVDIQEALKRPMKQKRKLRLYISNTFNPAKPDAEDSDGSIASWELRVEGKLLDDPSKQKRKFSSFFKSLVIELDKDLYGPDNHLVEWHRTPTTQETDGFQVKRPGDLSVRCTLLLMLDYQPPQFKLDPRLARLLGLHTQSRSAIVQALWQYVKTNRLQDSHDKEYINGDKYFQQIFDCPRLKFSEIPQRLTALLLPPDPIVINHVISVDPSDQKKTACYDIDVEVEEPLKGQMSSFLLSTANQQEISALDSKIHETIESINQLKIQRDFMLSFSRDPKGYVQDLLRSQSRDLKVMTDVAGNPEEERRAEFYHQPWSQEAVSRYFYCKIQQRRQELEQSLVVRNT
UniProt P03372: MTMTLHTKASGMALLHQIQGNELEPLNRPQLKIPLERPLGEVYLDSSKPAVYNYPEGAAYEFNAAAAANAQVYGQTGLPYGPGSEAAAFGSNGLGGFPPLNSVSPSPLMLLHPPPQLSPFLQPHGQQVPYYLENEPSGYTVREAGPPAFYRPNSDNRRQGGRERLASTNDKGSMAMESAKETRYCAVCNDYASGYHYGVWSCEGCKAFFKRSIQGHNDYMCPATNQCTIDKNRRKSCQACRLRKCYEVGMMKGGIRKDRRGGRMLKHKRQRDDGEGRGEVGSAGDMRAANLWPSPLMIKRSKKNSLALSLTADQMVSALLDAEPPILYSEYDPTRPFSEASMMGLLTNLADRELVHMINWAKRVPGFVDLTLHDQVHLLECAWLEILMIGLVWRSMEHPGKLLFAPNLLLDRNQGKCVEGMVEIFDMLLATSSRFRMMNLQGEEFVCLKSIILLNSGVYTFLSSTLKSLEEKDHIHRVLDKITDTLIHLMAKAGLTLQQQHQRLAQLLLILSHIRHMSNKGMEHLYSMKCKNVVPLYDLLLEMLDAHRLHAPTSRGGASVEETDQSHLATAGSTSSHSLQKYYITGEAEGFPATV

Assays:
Test in all cases: affinity purification with mass spectrometry
[1] = target: glucocorticoid receptor (human (endogenous in primary human cells, human cell lines and human PDX tumours)) (UniProt P04150)
[2] = target: glucocorticoid receptor (human (endogenous in primary human cells, human cell lines and human PDX tumours)) (UniProt P04150); remark: listed apart in the source
[3] = target: glucocorticoid receptor (human (endogenous in primary human cells, human cell lines and human PDX tumours)) (UniProt P04150); remark: listed apart in the source
[4] = target: glucocorticoid receptor (human (endogenous in primary human cells, human cell lines and human PDX tumours)) (UniProt P04150); remark: listed apart in the source
[5] = target: glucocorticoid receptor (human (endogenous in primary human cells, human cell lines and human PDX tumours)) (UniProt P04150); remark: listed apart in the source

binding [3]: binds | binding [1]: binds
Substance: GREB1 (from UniProt Q4ZG55 1-1949)

binding [4]: binds | binding [1]: binds
Substance: IKZF3 (from UniProt Q9UKT9 1-509)

binding [1]: binds
Substance: SMARCC1 (from UniProt Q92922 1-1105)

binding [1]: binds
Substance: WWTR1 (from UniProt Q9GZV5 1-400)

More lines, now with the values behind:

Substance: BCL11B (from UniProt Q9C0K0 1-894)
binding [1]: binds

Substance: GATA3 (from UniProt P23771 1-443)
binding [2]: binds | binding [1]: binds

Substance: SMARCD3 (from UniProt Q6STE5 1-483)
binding [5]: binds | binding [1]: binds

Substance: estrogen receptor alpha (from UniProt P03372 1-595)
binding [3]: binds | binding [1]: binds
